Experimental data reported in patent EP0362382A1, “METHOD OF STERILIZING PLANT POLLEN” (VSESOJUZNY NAUCHNO-ISSLEDOVATELSKY INST. SELSKOKHOZYAISTV. …, priority 1988, dated 1989).

Test system: Sonnenblume
Assay: Field test of chemical sterilisation of sunflower pollen
Type: in vivo
Details: for Masse von 1000 Achünen in g / Ölgehalt in %: V. Periode der Organogenese
Excerpt: Die gametozide Aktivitat der erfindungsgemäßen Sterilisationsmittel war im Feldversuch in verschiedenen bodenklimatischen Zonen mit Teilstücken von 10 m^2 Größe in drei- bis viermaliger Wiederholung festgestellt. Jedes Sterilisationsmittel wurde mindenstens 5 Jahre lang geprüft.
Die Entwicklung der Perioden der Organogenese wird zytologisch überwacht. Die Behandlung von Pflanzen mit dem Sterilisationsmittel erfolgt am Anfang der fünften Periode der Organogenese nach Kupermann.
Zur Kontrolle der chemischen Sterilisation des Sonnenblumenpollens werden für jede Verbindung 45 behandelte Pflanzen jeder Wiederholung benutzt, wobei 15 Pflanzen von denen zwecks Selbsbestäubung isoliert werden, Blütenkorbchen anderer 15 Pflanzen mit einem Pollengemisch, gesammelt von 20 bis 25 behandelten isolierten Körbchen, bestäubt werden, und 15 Pflanzen für freie Bestäubung gelassen werden, damit das Ansetzen von Achänen mit dem Pollen der väterlichen Form kontrolliert werden kann.
Man beurteilt die Pollensterilität von Pflanzen der Sonnenblume nach der Pollenfertilität und -keimfähigkeit, nach den morphologischen Besonderheiten von Spermien und nach der Fähigkeit von Achänen zum Ansetzen bei der Bestäubung der behandelten isolierten Pflanzen mit dem Pollen der unbehandelten väterlichen Form. Die Lebensfähigkeit der Eizelle wird nach der Samenbildung von behandelten Pflanzen bei freier Bestäubung mit der väterlichen Form bestimmt.
Man behandelt die Sonnenblume Sorte BHNNMK 8931 (WNIIMK 8931) in der V. Periode der Organogenese mit 0,5%iger wäßriger Emulsion von 4-Karboxybutyldezylsulfid, mit 1%iger Emulsion der δ, δ' -Sulfonyldivaleriansäure, 2%iger Emulsion von Bis(2-äthylhexyläther) der δ, δ' -Thiodivaleriansäure; die Sonnenblume der Linie BK-373 (WK-373) mit 2%iger Emulsion von Bis(2-äthylhexyläther) der δ δ' --Thiodivaleriansäure, mit 0,2%iger Emulsion von Bis(di--n-butyläther) der δ, δ' -Thiodivaleriansäure; die Sonnenblume der Linie BK=364 (WK-365) mit 2%iger wäßriger Emulsion von Bis(2-äthylhexyläther) der δ, δ' -Thirodivaleriansäure, mit 0,2%iger Emulsion von Bis(di-n-butyläther) der δ, δ' -Thiodivaleriansäure. Die Emulsion enthält 0,1 Masse% Kalziumalkylbenzolsulfonat mit 12 bis 14 Kohlenstoffatomen und 0,01 Masse% Dimethylsulfoxid. Als Kontrolle dienen Pflanzen, behandelt mit einem Verdünner ohne Sterilisationsmittel. Die Prüfergebnisse sind in der Tabelle 17 angegeben. […] Periode der Organogenese erhalten.

[1] = Linie BK-364 (WK-364), Beispiel 80: 2%ige, 81: 0,2%ige Emulsion
[2] = Sorte ВНИИМК 8931 (WNIIMK 8931), Verbrauch je ha in kg/600 l: Beispiel 82: 3,0, 83: 6,0, 84: 12,0
[3] = Linie BK-364 (WK-364), Verbrauch je ha in kg/600 l: Beispiel 87: 12,0, 88: 1,2
[4] = Sorte ВНИИМК 8931 (WNIIMK 8931), Beispiel 75: 0,5%ige, 76: 1%ige, 77: 2%ige Emulsion
[5] = Linie BK-373 (WK-373), Verbrauch je ha in kg/600 l: Beispiel 85: 12,0, 86: 1,2
[6] = Linie BK-373 (WK-373), Beispiel 78: 2%ige, 79: 0,2%ige Emulsion

## CCCCOC(=O)CCCCSCCCCC(=O)OCCCC [Beispiel 81, Bis(di-n-butyläther) der δ, δ' -Thiodivaleriansäure]
[1]
  Masse von 1000 Achünen in g: 87,1 g
  Ölgehalt in %: 44,5%

## CCCCCCCCCCSCCCCC(=O)O [Beispiel 82, 4-Karboxybutyldezylsulfid]
[2]
  Keimfähigkeit in %: 100,0%

## CCCCOC(=O)CCCCSCCCCC(=O)OCCCC [Beispiel 88, Bis(di-n-butyläther) der δ, δ' -Thiodivaleriansäure]
[3]
  Keimfähigkeit in %: 100,0%

## CCCCC(CC)COC(=O)CCCCSCCCCC(=O)OCC(CC)CCCC (stereo not drawn) [Beispiel 77, Bis(2-äthylhexyläther) der δ, δ' -Thiodivaleriansäure]
[4]
  Masse von 1000 Achünen in g: 91,9 g
  Ölgehalt in %: 53,9%

## CCCCC(CC)COC(=O)CCCCSCCCCC(=O)OCC(CC)CCCC (stereo not drawn) [Beispiel 85, Bis(2-äthylhexyläther) der δ δ' --Thiodivaleriansäure]
[5]
  Keimfähigkeit in %: 100,0%

## CCCCOC(=O)CCCCSCCCCC(=O)OCCCC [Beispiel 86, Bis(di--n-butyläther) der δ, δ' -Thiodivaleriansäure]
[5]
  Keimfähigkeit in %: 100,0%

## O=C(O)CCCCS(=O)(=O)CCCCC(=O)O [Beispiel 83, δ, δ' -Sulfonyldivaleriansäure]
[2]
  Keimfähigkeit in %: 100,0%

## O=C(O)CCCCS(=O)(=O)CCCCC(=O)O [Beispiel 76, δ, δ' -Sulfonyldivaleriansäure]
[4]
  Masse von 1000 Achünen in g: 85,5 g
  Ölgehalt in %: 53,6%

## CCCCC(CC)COC(=O)CCCCSCCCCC(=O)OCC(CC)CCCC (stereo not drawn) [Beispiel 80, Bis(2-äthylhexyläther) der δ, δ' -Thirodivaleriansäure]
[1]
  Masse von 1000 Achünen in g: 87,0 g
  Ölgehalt in %: 45,5%

## CCCCCCCCCCSCCCCC(=O)O [Beispiel 75, 4-Karboxybutyldezylsulfid]
[4]
  Masse von 1000 Achünen in g: 78,0 g
  Ölgehalt in %: 52,5%

## CCCCC(CC)COC(=O)CCCCSCCCCC(=O)OCC(CC)CCCC (stereo not drawn) [Beispiel 84, Bis(2-äthylhexyläther) der δ, δ' -Thiodivaleriansäure]
[2]
  Keimfähigkeit in %: 100,0%

## CCCCC(CC)COC(=O)CCCCSCCCCC(=O)OCC(CC)CCCC (stereo not drawn) [Beispiel 87, Bis(2-äthylhexyläther) der δ, δ' -Thirodivaleriansäure]
[3]
  Keimfähigkeit in %: 100,0%

## CCCCOC(=O)CCCCSCCCCC(=O)OCCCC [Beispiel 79, Bis(di--n-butyläther) der δ, δ' -Thiodivaleriansäure]
[6]
  Masse von 1000 Achünen in g: 57,2 g
  Ölgehalt in %: 49,2%

## CCCCC(CC)COC(=O)CCCCSCCCCC(=O)OCC(CC)CCCC (stereo not drawn) [Beispiel 78, Bis(2-äthylhexyläther) der δ δ' --Thiodivaleriansäure]
[6]
  Masse von 1000 Achünen in g: 54,5 g
  Ölgehalt in %: 48,1%
